# Source: the supplement of paper PMC8728848
# The list shows a part of the results.
# B1: Epa3to2 (Candida glabrata) (protein)
# chain: MGSSHHHHHHSSGLVPRGSHMKRELSSQNPFGYPIGCSPQDVAIIPGLTMELYSYPIVSGTPPNCYDASYVDPEYPRTGYLKRKMVGKSTGVTGNLNYKYSVEKACMVKYGNLPAGYNYNEPLTVSNFTMILYGYFKAQTTGLHTFFVNADDLLYINFGAGNAFDCCKREDSKTKLGEYVAYDIWHVDSSKNKVSLFLEKDLYYPIRMFFNNRDNNSSLDLSFSVNGATDQISDFSGYLYSVPDQPDTCPAHIGYDTTCR
# Columns and labels:
# Test in all cases: glycan array binding signal (z-score within array); higher = stronger binding
# Settings in all cases: glycan notation: IUPAC condensed, linker removed
# [1] = target: GlcNAc(b1-2)Gal(b1-3)GalNAc
# Method in brief: (§1)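 The binding signal is a Z-score computed within each array and averaged over linkers. Arrays of the same protein sequence at different concentrations or buffers were also averaged together. Data originate from 3228 arrays in the Consortium for Functional Glycomics database, kept only where the protein sequence was available.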
# [2] = target: GlcNAc(b1-2)Man(a1-3)[GlcNAc(b1-2)Man(a1-6)]Man(b1-4)GlcNAc(b1-4)GlcNAc
# Method in brief: as §1
# [3] = target: GlcNAc(b1-2)Man(a1-3)[GlcNAc(b1-2)Man(a1-6)]Man(b1-4)GlcNAc(b1-4)[Fuc(a1-6)]GlcNAc
# Method in brief: as §1
# [4] = target: GlcNAc(b1-2)Man(a1-3)[GlcNAc(b1-4)][GlcNAc(b1-2)Man(a1-6)]Man(b1-4)GlcNAc(b1-4)GlcNAc
# Method in brief: as §1
# [5] = target: GlcNAc(b1-2)Man(a1-3)[GlcNAc(b1-4)][GlcNAc(b1-2)Man(a1-6)]Man(b1-4)GlcNAc(b1-4)[Fuc(a1-6)]GlcNAc
# Method in brief: as §1
# [6] = target: GlcNAc(b1-2)[GlcNAc(b1-4)]Man(a1-3)[GlcNAc(b1-2)Man(a1-6)]Man(b1-4)GlcNAc(b1-4)GlcNAc
# Method in brief: as §1
# [7] = target: GlcNAc(b1-2)[GlcNAc(b1-4)]Man(a1-3)[GlcNAc(b1-4)][GlcNAc(b1-2)Man(a1-6)]Man(b1-4)GlcNAc(b1-4)GlcNAc
# Method in brief: as §1
# [8] = target: GlcNAc(b1-2)[GlcNAc(b1-4)]Man(a1-3)[GlcNAc(b1-4)][GlcNAc(b1-2)[GlcNAc(b1-6)]Man(a1-6)]Man(b1-4)GlcNAc(b1-4)GlcNAc
# Method in brief: as §1
# [9] = target: GlcNAc(b1-2)[GlcNAc(b1-4)]Man(a1-3)[GlcNAc(b1-4)][GlcNAc(b1-2)[GlcNAc(b1-6)]Man(a1-6)]Man(b1-4)GlcNAc(b1-4)[Fuc(a1-6)]GlcNAc
# Method in brief: as §1
# [10] = target: GlcNAc(b1-2)[GlcNAc(b1-6)]Man(a1-6)[GlcNAc(b1-2)Man(a1-3)]Man(b1-4)GlcNAc(b1-4)GlcNAc
# Method in brief: as §1
# [11] = target: GlcNAc(b1-2)[GlcNAc(b1-6)]Man(a1-6)[GlcNAc(b1-2)Man(a1-3)]Man(b1-4)GlcNAc(b1-4)[Fuc(a1-6)]GlcNAc
# Method in brief: as §1
# [12] = target: GlcNAc(b1-2)[GlcNAc(b1-6)]Man(a1-6)[GlcNAc(b1-4)][GlcNAc(b1-2)Man(a1-3)]Man(b1-4)GlcNAc(b1-4)GlcNAc
# Method in brief: as §1
# [13] = target: GlcNAc(b1-3)Fuc
# Method in brief: as §1
# [14] = target: GlcNAc(b1-3)Gal
# Method in brief: as §1
# [15] = target: GlcNAc(b1-3)Gal(b1-3)GalNAc
# Method in brief: as §1
# [16] = target: GlcNAc(b1-3)Gal(b1-4)Glc
# Method in brief: as §1
# [17] = target: GlcNAc(b1-3)Gal(b1-4)GlcNAc
# Method in brief: as §1
# [18] = target: GlcNAc(b1-3)Gal(b1-4)GlcNAc(b1-2)Man(a1-3)[GlcNAc(b1-3)Gal(b1-4)GlcNAc(b1-2)Man(a1-6)]Man(b1-4)GlcNAc(b1-4)GlcNAc
# Method in brief: as §1
# [19] = target: GlcNAc(b1-3)Gal(b1-4)GlcNAc(b1-2)Man(a1-3)[GlcNAc(b1-3)Gal(b1-4)GlcNAc(b1-2)Man(a1-6)]Man(b1-4)GlcNAc(b1-4)[Fuc(a1-6)]GlcNAc
# Method in brief: as §1
# [20] = target: GlcNAc(b1-3)Gal(b1-4)GlcNAc(b1-2)[GlcNAc(b1-3)Gal(b1-4)GlcNAc(b1-6)]Man(a1-6)[GlcNAc(b1-3)Gal(b1-4)GlcNAc(b1-2)Man(a1-3)]Man(b1-4)GlcNAc(b1-4)GlcNAc
# Method in brief: as §1
# [21] = target: GlcNAc(b1-3)Gal(b1-4)GlcNAc(b1-3)Gal(b1-4)GlcNAc
# Method in brief: as §1
# [22] = target: GlcNAc(b1-3)Gal(b1-4)GlcNAc(b1-3)Gal(b1-4)GlcNAc(b1-2)Man(a1-3)[GlcNAc(b1-3)Gal(b1-4)GlcNAc(b1-3)Gal(b1-4)GlcNAc(b1-2)Man(a1-6)]Man(b1-4)GlcNAc(b1-4)GlcNAc
# Method in brief: as §1
# [23] = target: GlcNAc(b1-3)Gal(b1-4)GlcNAc(b1-3)Gal(b1-4)GlcNAc(b1-2)Man(a1-3)[GlcNAc(b1-3)Gal(b1-4)GlcNAc(b1-3)Gal(b1-4)GlcNAc(b1-2)Man(a1-6)]Man(b1-4)GlcNAc(b1-4)[Fuc(a1-6)]GlcNAc
# Method in brief: as §1
# [24] = target: GlcNAc(b1-3)Gal(b1-4)GlcNAc(b1-3)Gal(b1-4)GlcNAc(b1-2)[GlcNAc(b1-3)Gal(b1-4)GlcNAc(b1-3)Gal(b1-4)GlcNAc(b1-6)]Man(a1-6)[GlcNAc(b1-3)Gal(b1-4)GlcNAc(b1-3)Gal(b1-4)GlcNAc(b1-2)Man(a1-3)]Man(b1-4)GlcNAc(b1-4)[Fuc(a1-6)]GlcNAc
# Method in brief: as §1
# [25] = target: GlcNAc(b1-3)Gal(b1-4)GlcNAc(b1-3)Gal(b1-4)GlcNAc(b1-3)Gal(b1-4)GlcNAc(b1-2)Man(a1-3)[GlcNAc(b1-3)Gal(b1-4)GlcNAc(b1-3)Gal(b1-4)GlcNAc(b1-3)Gal(b1-4)GlcNAc(b1-2)Man(a1-6)]Man(b1-4)GlcNAc(b1-4)GlcNAc
# Method in brief: as §1
# [26] = target: GlcNAc(b1-3)Gal(b1-4)GlcNAc(b1-3)Gal(b1-4)GlcNAc(b1-3)Gal(b1-4)GlcNAc(b1-2)Man(a1-3)[GlcNAc(b1-3)Gal(b1-4)GlcNAc(b1-3)Gal(b1-4)GlcNAc(b1-3)Gal(b1-4)GlcNAc(b1-2)Man(a1-6)]Man(b1-4)GlcNAc(b1-4)[Fuc(a1-6)]GlcNAc
# Method in brief: as §1
# [27] = target: GlcNAc(b1-3)Gal(b1-4)GlcNAc(b1-3)Gal(b1-4)GlcNAc(b1-3)Gal(b1-4)GlcNAc(b1-2)[GlcNAc(b1-3)Gal(b1-4)GlcNAc(b1-3)Gal(b1-4)GlcNAc(b1-3)Gal(b1-4)GlcNAc(b1-6)]Man(a1-6)[GlcNAc(b1-3)Gal(b1-4)GlcNAc(b1-3)Gal(b1-4)GlcNAc(b1-3)Gal(b1-4)GlcNAc(b1-2)Man(a1-3)]Man(b1-4)GlcNAc(b1-4)[Fuc(a1-6)]GlcNAc
# Method in brief: as §1
# [28] = target: GlcNAc(b1-3)Gal(b1-4)GlcNAc(b1-3)Gal(b1-4)GlcNAc(b1-3)Gal(b1-4)GlcNAc(b1-3)Gal(b1-4)GlcNAc(b1-2)Man(a1-3)[GlcNAc(b1-3)Gal(b1-4)GlcNAc(b1-3)Gal(b1-4)GlcNAc(b1-3)Gal(b1-4)GlcNAc(b1-3)Gal(b1-4)GlcNAc(b1-2)Man(a1-6)]Man(b1-4)GlcNAc(b1-4)GlcNAc
# Method in brief: as §1
# [29] = target: GlcNAc(b1-3)Gal(b1-4)GlcNAc(b1-3)Gal(b1-4)GlcNAc(b1-3)Gal(b1-4)GlcNAc(b1-3)Gal(b1-4)GlcNAc(b1-2)Man(a1-3)[GlcNAc(b1-3)Gal(b1-4)GlcNAc(b1-3)Gal(b1-4)GlcNAc(b1-3)Gal(b1-4)GlcNAc(b1-3)Gal(b1-4)GlcNAc(b1-2)Man(a1-6)]Man(b1-4)GlcNAc(b1-4)[Fuc(a1-6)]GlcNAc
# Method in brief: as §1
# [30] = target: GlcNAc(b1-3)Gal(b1-4)GlcNAc(b1-3)Gal(b1-4)GlcNAc(b1-3)Gal(b1-4)GlcNAc(b1-3)Gal(b1-4)GlcNAc(b1-2)[GlcNAc(b1-3)Gal(b1-4)GlcNAc(b1-3)Gal(b1-4)GlcNAc(b1-3)Gal(b1-4)GlcNAc(b1-3)Gal(b1-4)GlcNAc(b1-6)]Man(a1-6)[GlcNAc(b1-3)Gal(b1-4)GlcNAc(b1-3)Gal(b1-4)GlcNAc(b1-3)Gal(b1-4)GlcNAc(b1-3)Gal(b1-4)GlcNAc(b1-2)Man(a1-3)]Man(b1-4)GlcNAc(b1-4)[Fuc(a1-6)]GlcNAc
# Method in brief: as §1
# [31] = target: GlcNAc(b1-3)Gal(b1-4)GlcNAc(b1-3)Gal(b1-4)GlcNAc(b1-3)GalNAc
# Method in brief: as §1
# [32] = target: GlcNAc(b1-3)Gal(b1-4)GlcNAc(b1-3)GalNAc
# Method in brief: as §1
# [33] = target: GlcNAc(b1-3)Gal(b1-4)GlcNAc(b1-3)[GlcNAc(b1-3)Gal(b1-4)GlcNAc(b1-3)]GalNAc
# Method in brief: as §1
# [34] = target: GlcNAc(b1-3)Gal(b1-4)GlcNAc(b1-6)[Gal(b1-3)]GalNAc
# Method in brief: as §1
# [35] = target: GlcNAc(b1-3)Gal(b1-4)GlcNAc(b1-6)[GlcNAc(b1-3)Gal(b1-3)]GalNAc
# Method in brief: as §1
# [36] = target: GlcNAc(b1-3)Gal(b1-4)GlcNAc(b1-6)[GlcNAc(b1-3)]Gal(b1-4)GlcNAc
# Method in brief: as §1
# [37] = target: GlcNAc(b1-3)GalNAc
# Method in brief: as §1
binder,measurement,setting,value
B1,glycan array binding signal (z-score),[1],-1.16
same,glycan array binding signal (z-score),[2],0.466
same,glycan array binding signal (z-score),[3],-0.32
same,glycan array binding signal (z-score),[4],1.19
same,glycan array binding signal (z-score),[5],-0.594
same,glycan array binding signal (z-score),[6],-0.097
same,glycan array binding signal (z-score),[7],0.595
same,glycan array binding signal (z-score),[8],-0.467
same,glycan array binding signal (z-score),[9],-0.111
same,glycan array binding signal (z-score),[10],-0.017
same,glycan array binding signal (z-score),[11],-0.719
same,glycan array binding signal (z-score),[12],-0.416
same,glycan array binding signal (z-score),[13],0.679
same,glycan array binding signal (z-score),[14],-1.74
same,glycan array binding signal (z-score),[15],-0.266
same,glycan array binding signal (z-score),[16],-0.764
same,glycan array binding signal (z-score),[17],-1.06
same,glycan array binding signal (z-score),[18],-0.686
same,glycan array binding signal (z-score),[19],1.04
same,glycan array binding signal (z-score),[20],0.124
same,glycan array binding signal (z-score),[21],-1.41
same,glycan array binding signal (z-score),[22],-0.593
same,glycan array binding signal (z-score),[23],0.358
same,glycan array binding signal (z-score),[24],-0.039
same,glycan array binding signal (z-score),[25],0.075
same,glycan array binding signal (z-score),[26],1.19
same,glycan array binding signal (z-score),[27],-0.422
same,glycan array binding signal (z-score),[28],-0.038
same,glycan array binding signal (z-score),[29],1.62
same,glycan array binding signal (z-score),[30],0.146
same,glycan array binding signal (z-score),[31],-0.509
same,glycan array binding signal (z-score),[32],0.312
same,glycan array binding signal (z-score),[33],-0.512
same,glycan array binding signal (z-score),[34],0.756
same,glycan array binding signal (z-score),[35],-1.78
same,glycan array binding signal (z-score),[36],-0.506
same,glycan array binding signal (z-score),[37],-1.42

# Exported as tab-separated lines: entries from further up.
binder	measurement	setting	value
B1	glycan array binding signal (z-score)	[11]	-0.719
same	glycan array binding signal (z-score)	[12]	-0.416
